These results are taken from article PMC8386380.

Chains of the proteins cited; added tags and fusions are not shown. Residues count along the entry.
UniProt P20029, residues 20-655: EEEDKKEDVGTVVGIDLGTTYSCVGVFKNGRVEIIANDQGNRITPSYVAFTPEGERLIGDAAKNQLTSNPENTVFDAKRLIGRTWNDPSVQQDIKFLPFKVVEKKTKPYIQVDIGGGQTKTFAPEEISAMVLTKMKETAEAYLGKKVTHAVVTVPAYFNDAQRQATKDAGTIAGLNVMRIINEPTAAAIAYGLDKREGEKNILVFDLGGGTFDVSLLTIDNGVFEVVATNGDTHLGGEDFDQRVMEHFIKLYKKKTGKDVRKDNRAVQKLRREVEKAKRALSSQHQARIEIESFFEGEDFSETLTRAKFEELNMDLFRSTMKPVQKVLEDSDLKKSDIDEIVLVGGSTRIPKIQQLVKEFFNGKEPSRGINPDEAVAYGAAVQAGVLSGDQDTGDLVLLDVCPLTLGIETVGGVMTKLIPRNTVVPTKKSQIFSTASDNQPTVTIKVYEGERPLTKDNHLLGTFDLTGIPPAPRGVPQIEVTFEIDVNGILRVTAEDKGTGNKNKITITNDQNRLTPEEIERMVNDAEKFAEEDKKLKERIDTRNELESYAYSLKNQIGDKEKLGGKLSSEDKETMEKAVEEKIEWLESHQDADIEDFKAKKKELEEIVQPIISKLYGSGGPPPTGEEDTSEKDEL
UniProt P08113, residues 22-802: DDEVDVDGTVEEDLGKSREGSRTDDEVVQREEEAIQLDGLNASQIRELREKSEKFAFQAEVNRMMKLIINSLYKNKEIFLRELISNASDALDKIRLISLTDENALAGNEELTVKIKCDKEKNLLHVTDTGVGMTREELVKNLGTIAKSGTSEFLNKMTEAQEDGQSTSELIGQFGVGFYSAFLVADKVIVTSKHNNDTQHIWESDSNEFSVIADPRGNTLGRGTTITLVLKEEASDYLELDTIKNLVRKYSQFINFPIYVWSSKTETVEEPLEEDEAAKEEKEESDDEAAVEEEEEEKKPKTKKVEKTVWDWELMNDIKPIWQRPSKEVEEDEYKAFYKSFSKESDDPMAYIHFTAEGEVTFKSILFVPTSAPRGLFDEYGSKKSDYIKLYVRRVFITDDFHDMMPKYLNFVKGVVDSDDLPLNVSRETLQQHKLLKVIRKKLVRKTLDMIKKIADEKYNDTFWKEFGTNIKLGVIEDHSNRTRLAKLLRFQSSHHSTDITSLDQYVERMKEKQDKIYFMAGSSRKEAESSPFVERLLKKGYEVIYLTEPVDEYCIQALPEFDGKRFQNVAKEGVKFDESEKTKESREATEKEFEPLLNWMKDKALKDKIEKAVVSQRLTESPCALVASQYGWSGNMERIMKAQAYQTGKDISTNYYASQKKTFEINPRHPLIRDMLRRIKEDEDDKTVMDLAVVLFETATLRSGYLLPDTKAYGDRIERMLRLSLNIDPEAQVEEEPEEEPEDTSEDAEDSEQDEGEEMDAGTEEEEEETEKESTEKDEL
UniProt P16110: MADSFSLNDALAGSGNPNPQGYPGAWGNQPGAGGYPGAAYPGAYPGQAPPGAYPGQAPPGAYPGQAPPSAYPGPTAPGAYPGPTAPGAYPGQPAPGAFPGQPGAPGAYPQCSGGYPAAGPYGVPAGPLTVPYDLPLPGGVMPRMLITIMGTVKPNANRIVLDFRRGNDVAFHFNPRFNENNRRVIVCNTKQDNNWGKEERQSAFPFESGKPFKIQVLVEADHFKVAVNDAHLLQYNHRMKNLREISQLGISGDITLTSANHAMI
UniProt P62821: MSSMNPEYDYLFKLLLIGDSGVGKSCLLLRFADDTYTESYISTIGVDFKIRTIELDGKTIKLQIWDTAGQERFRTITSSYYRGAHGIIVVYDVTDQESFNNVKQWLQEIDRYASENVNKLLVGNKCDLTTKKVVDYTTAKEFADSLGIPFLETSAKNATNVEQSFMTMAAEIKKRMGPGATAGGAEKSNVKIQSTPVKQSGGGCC
UniProt Q8C3J5: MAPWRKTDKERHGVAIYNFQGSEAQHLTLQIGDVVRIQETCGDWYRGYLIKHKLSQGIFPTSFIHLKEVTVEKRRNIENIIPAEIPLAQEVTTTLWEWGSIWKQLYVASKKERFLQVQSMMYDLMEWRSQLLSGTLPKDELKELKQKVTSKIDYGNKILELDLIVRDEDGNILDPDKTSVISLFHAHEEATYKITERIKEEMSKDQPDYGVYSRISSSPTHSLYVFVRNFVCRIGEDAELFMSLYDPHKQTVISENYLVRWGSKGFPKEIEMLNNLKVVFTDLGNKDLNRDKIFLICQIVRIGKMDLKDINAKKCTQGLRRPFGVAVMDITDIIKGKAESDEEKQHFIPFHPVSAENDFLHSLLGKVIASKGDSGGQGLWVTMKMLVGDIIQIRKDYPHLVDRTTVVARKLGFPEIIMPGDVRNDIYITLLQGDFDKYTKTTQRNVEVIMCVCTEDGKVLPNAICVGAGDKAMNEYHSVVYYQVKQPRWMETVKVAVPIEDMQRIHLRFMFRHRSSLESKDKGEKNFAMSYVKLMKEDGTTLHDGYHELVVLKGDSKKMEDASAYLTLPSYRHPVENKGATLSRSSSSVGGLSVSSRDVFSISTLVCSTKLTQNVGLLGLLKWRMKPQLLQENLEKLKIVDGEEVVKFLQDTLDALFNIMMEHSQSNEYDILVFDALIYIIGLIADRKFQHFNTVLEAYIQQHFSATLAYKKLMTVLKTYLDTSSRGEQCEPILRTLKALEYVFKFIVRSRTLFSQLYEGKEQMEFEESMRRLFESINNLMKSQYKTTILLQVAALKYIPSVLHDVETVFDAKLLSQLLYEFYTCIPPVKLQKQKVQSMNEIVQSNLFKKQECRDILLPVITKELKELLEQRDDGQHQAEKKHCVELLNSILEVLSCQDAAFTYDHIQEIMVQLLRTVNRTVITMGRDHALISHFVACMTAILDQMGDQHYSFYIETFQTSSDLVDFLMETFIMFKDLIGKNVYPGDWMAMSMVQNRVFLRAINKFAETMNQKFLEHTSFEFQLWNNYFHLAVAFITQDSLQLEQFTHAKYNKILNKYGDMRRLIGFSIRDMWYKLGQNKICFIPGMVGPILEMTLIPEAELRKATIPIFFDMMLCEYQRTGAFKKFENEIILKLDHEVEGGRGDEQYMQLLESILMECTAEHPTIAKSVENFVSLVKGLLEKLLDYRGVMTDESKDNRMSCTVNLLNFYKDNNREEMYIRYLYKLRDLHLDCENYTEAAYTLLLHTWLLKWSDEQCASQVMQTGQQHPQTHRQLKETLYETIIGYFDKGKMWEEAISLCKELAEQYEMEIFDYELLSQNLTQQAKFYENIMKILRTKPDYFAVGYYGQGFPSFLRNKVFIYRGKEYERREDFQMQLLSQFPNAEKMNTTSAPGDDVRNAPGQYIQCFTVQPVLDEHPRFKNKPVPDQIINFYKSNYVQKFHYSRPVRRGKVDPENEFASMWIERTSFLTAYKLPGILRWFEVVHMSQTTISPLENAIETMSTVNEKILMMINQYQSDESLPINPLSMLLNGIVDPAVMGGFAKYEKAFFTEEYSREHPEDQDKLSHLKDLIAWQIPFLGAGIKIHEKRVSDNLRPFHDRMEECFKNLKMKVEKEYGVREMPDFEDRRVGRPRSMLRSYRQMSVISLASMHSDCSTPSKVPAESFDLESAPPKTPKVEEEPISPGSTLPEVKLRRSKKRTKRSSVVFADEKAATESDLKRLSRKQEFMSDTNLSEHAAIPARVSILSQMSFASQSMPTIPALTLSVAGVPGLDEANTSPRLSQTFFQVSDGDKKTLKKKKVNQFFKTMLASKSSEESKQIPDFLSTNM
UniProt P56480, residues 47-529: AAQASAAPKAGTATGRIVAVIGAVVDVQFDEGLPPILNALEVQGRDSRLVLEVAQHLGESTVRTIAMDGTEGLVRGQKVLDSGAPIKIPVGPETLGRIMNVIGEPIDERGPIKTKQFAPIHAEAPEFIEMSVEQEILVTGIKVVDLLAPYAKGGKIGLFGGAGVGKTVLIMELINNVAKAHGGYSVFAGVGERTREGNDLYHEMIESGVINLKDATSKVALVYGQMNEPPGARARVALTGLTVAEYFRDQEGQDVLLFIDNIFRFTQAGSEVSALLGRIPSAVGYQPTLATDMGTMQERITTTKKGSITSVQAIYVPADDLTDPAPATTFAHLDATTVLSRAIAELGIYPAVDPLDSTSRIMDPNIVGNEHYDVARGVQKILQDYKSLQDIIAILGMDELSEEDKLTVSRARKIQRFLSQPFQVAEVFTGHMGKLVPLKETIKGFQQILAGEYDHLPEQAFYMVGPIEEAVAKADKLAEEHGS

These are yes or no findings as the source states them, for the method shown. Binding seen in cells or lysates may run through a third protein. A yes stands for co-enrichment or nearness to the bait. Other partners may have been found. Sequences can lack the tags named with a protein.

The target of experiment [1] is T1, PE_PGRS20 of Mycobacterium tuberculosis, HA-tagged (M. tuberculosis) (UniProt P9WIF9).
T1 sequence: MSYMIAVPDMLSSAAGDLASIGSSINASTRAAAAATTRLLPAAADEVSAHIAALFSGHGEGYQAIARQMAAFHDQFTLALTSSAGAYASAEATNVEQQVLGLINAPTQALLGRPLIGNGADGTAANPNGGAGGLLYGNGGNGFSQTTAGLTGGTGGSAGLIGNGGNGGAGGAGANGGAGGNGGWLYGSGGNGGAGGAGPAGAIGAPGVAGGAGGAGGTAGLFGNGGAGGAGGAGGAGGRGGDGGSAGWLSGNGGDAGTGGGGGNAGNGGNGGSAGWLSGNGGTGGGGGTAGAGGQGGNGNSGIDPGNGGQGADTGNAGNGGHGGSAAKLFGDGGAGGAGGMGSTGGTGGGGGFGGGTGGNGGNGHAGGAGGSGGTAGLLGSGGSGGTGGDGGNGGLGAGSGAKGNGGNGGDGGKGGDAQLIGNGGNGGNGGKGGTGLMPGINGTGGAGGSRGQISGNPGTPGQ
The experiment in a line: affinity purification with mass spectrometry.

Experiment [2] has as its target T2, PE_PGRS47 of Mycobacterium tuberculosis, HA-tagged (M. tuberculosis) (UniProt Q79FB3).
T2 sequence: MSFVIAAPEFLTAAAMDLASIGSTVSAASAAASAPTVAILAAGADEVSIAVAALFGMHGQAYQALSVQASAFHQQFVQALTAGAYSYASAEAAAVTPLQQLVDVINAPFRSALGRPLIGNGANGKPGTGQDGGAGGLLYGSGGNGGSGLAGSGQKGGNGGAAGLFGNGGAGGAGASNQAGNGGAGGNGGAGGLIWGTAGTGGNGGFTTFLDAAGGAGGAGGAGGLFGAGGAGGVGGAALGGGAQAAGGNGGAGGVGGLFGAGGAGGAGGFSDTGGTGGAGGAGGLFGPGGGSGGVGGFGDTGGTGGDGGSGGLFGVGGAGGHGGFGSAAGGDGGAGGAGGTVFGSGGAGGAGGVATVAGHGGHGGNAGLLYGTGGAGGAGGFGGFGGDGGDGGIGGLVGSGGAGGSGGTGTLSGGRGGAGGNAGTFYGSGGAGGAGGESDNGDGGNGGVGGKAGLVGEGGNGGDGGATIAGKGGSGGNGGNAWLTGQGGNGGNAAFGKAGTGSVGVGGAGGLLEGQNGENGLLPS
The experiment in a line: affinity purification with mass spectrometry.

With “Endoplasmic reticulum chaperone BiP (from UniProt P20029 20-655)”, the binding result in experiment [1] and in experiment [2] was “binds” throughout.

Regarding “Endoplasmin (from UniProt P08113 22-802)”, the binding entry in experiment [1] and in experiment [2] was “binds” in each case.

With Galectin-3 (from UniProt P16110 1-264), the binding entry in experiment [2] is on record as “binds”.

Consider “Ras-related protein Rab-1A (from UniProt P62821 1-205)”, for which the binding entry in experiment [1] and in experiment [2] was “binds” each time.

On to “Dedicator of cytokinesis protein 2 (from UniProt Q8C3J5 1-1828)”, for which the binding result in experiment [1] is reported as “binds”.

On to “ATP synthase subunit beta, mitochondrial (from UniProt P56480 47-529)”, for which the binding result in experiment [1] and in experiment [2] was “binds” throughout.

B1: MICOS complex subunit Mic19 (protein, UniProt Q9CRB9 1-227)
chain: MGGTASTRRVTFEADENENITVVKGIRLSENVIDRMKESSPSGSKSQRYSSVYGASVSDEDLKRRVAEELALEQAKKESEHQRRLKQARDLERERAAANEQLTRAVLRERISSEEERMKAKHLARQLEEKDRVMRKQDAFYKEQLARLEERSSEFYKVTTEEYQKAAEEVEAKFKRYEYHPVCADLQTKILQCYRQNTQQTLSCSALASQYMHCVNHAKQSMLEKGG
Consider B1, for which the binding entry in experiment [1] and in experiment [2] was “binds” throughout.

B2: Lysozyme C-1 (protein, UniProt P17897 19-148)
chain: KVYNRCELARILKRNGMDGYRGVKLADWVCLAQHESNYNTRATNYNRGDRSTDYGIFQINSRYWCNDGKTPRSKNACGINCSALLQDDITAAIQCAKRVVRDPQGIRAWVAWRTQCQNRDLSQYIRNCGV
For B2, the binding result in experiment [2] is reported as “binds”.

B3: 14-3-3 protein gamma (protein, UniProt P61982 1-247)
chain: MVDREQLVQKARLAEQAERYDDMAAAMKNVTELNEPLSNEERNLLSVAYKNVVGARRSSWRVISSIEQKTSADGNEKKIEMVRAYREKIEKELEAVCQDVLSLLDNYLIKNCSETQYESKVFYLKMKGDYYRYLAEVATGEKRATVVESSEKAYSEAHEISKEHMQPTHPIRLGLALNYSVFYYEIQNAPEQACHLAKTAFDDAIAELDTLNEDSYKDSTLIMQLLRDNLTLWTSDQQDDDGGEGNN
For B3, the binding result in experiment [1] and in experiment [2] was “binds” in each case.

B4: Myb-binding protein 1A (protein, UniProt Q7TPV4 1-1344)
chain: MAEMKSPTKAEPATPAEAAQSDRHSLLEHSREFLDFFWDIAKPDQETRLRATEKLLEYLRTRPNDSEMKYALKRLITGLGVGREAARPCYSLALAQLLQSFEDIPLCDILDQIQEKYSLQAMNKAMMRPSLFANLFGVLALFQSGRLVKDKEALMKSVQLLKILSQHPNHLQGQPIKALVDILSEVPESMFQEILPKVLKGNMKVILRSPKYLELFLLAKQRVPTKLESLMGSVDLFSEDNIPSLVNILKVAANSVKKEHKLPNVALDLLRLALKESRFELFWKKVLEEGLLKNPSWTSSYMCFRLLGASLPLLSEEQLQLVMRGDLIRHFGENMVISKPQNLFKIIPEISTYVGTFLEGCQDDPKRQLTMMVAFTTITNQGLPVMPTFWRVTRFLNAEALQSYVAWLRDMFLQPDLNSLVDFSTANQKRAQDASLNVPERAVFRLRKWIIHRLVSLVDHLHLEKDEAVVEQIARFCLFHAFFKTKKATPQIPETKQHFSFPLDDRNRGVFVSAFFSLLQTLSVKFRQTPDLAENGKPWTYRLVQLADMLLNHNRNVTSVTSLTTQQRQAWDQMMSTLKELEARSSETRAIAFQHLLLLVGLHIFKSPAESCDVLGDIQTCIKKSMEQNPRRSRSRAKASQEPVWVEVMVEILLSLLAQPSNLMRQVVRSVFGHICPHLTPRCLQLILAVLSPVTNEDEDDNVVVTDDADEKQLQHGEDEDSDNEDNKNSESDMDSEDGEESEEEDRDKDVDPGFRQQLMEVLKAGNALGGVDNEEEEELGDEAMMALDQNLASLFKEQKMRIQARNEEKNKLQKEKKLRRDFQIRALDLIEVLVTKQPEHPLILELLEPLLNVIQHSMRSKGSTKQEQDLLHKTARIFMHHLCRARRYCHEVGPCAEALHAQVERLVQQAGSQADASVALYYFNASLYLLRVLKGNTNKRHQDGHKLHGADTEDSEDQAANCLDLDFVTRVYSASLESLLTKRNSSLTVPMFLSLFSRYPVICKNLLPVLAQHVAGPSRPRHQAQACLMLQKTLSARELRVCFEDPEWEQLITQLLGKATQTLQTLGEAQSKGEHQKELSILELLNTLLRTVNHEKLSVDLTAPLGVLQSKQQKLQQSLQQGNHSSGSNRLYDLYWQAMRMLGVQRPKSEKKNAKDIPSDTQSPVSTKRKKKGFLPETKKRKKLKSEGTTPEKNAASQQDAVTEGAMPAATGKDQPPSTGKKKRKRVKASTPSQVNGITGAKSPAPSNPTLSPSTPAKTPKLQKKKEKLSQVNGATPVSPIEPESKKHHQEALSTKEVIRKSPHPQSALPKKRARLSLVSRSPSLLQSGVKKRRVASRRVQTP
As for B4, in experiment [1], the binding result is “binds”.

B5: Protein flightless-1 homolog (protein, UniProt Q9JJ28 1-1271)
chain: MEATGVLPFVRGVDLSGNDFKGGYFPENVKAMTSLRWLKLNRTGLCYLPEELAALQKLEHLSVSHNHLTTLHGELSSLPSLRAIVARANSLKNSGVPDDIFKLDDLSVLDLSHNQLTECPRELENAKNMLVLNLSHNGIDSIPNQLFINLTDLLYLDLSENRLESLPPQMRRLVHLQTLVLNGNPLLHAQLRQLPAMMALQTLHLRNTQRTQSNLPTSLEGLSNLSDVDLSCNDLTRVPECLYTLPSLRRLNLSSNQIAELSLCIDQWVHLETLNLSRNQLTSLPSAICKLTKLKKLYLNSNKLDFDGLPSGIGKLTSLEEFMAANNNLELIPESLCRCPKLKKLVLNKNRLVTLPEAIHFLTEIQVLDVRENPSLVMPPKPADRTAEWYNIDFSLQNQLRLAGASPATVAAAAAVGSGSKDPLARKMRLRRRKDSAQDVQAKQVLKGMSDVAQEKNKNQEESIDARAPGGKVRRWDQGLEKPRLDYSEFFTEDVGQLPGLTIWQIENFVPVLVEEAFHGKFYEADCYIVLKTFLDDSGSLNWEIYYWIGGEATLDKKACSAIHAVNLRNYLGAECRTVREEMGDESEEFLQVFDNDISYIEGGTASGFYTVEDTHYVTRMYRVYGKKNIKLEPVPLKGSSLDPRFVFLLDQGLDIYVWRGAQATLSNTTKARLFAEKINKNERKGKAEITLLVQGQEPPGFWDVLGGEPSEIKNHVPDDFWPPQPKLYKVGLGLGYLELPQINYKLSVEHKKRPKVELMPGMRLLQSLLDTRCVYILDCWSDVFIWLGRKSPRLVRAAALKLGQELCGMLHRPRHTVVSRSLEGTEAQVFKAKFKNWDDVLTVDYTRNAEAVLQGQGLSGKVKRDTEKTDQMKADLTALFLPRQPPMPLAEAEQLMEEWNEDLDGMEGFVLEGRKFTRLPEEEFGHFYTQDCYVFLCRYWVPVEYEEEEKTEDKEGKASAEAREGEEAAAEAEEKQPEEDFQCIVYFWQGREASNMGWLTFTFSLQKKFESLFPGKLEVVRMTQQQENPKFLSHFKRKFIIHRGKRKVTQGTLQPTLYQIRTNGSALCTRCIQINTDSSLLNSEFCFILKVPFESEDNQGIVYAWVGRASDPDEAKLAEDILNTMFDASYSKQVINEGEEPENFFWVGIGAQKPYDDDAEYMKHTRLFRCSNEKGYFAVTEKCSDFCQDDLADDDIMLLDNGQEVYMWVGTQTSQVEIKLSLKACQVYIQHTRSKEHERPRRLRLVRKGNEQRAFTRCFHAWSTFRQAPA
For the molecule B5, the binding entry in experiment [1] is “binds”.

B6: Phosphate carrier protein, mitochondrial (protein, UniProt Q8VEM8 46-357)
chain: AVEEYSCEFGSMKYYALCGFGGVLSCGLTHTAVVPLDLVKCRMQVDPQKYKGIFNGFSITLKEDGVRGLAKGWAPTLIGYSMQGLCKFGFYEVFKALYSNILGEENTYLWRTSLYLASSASAEFFADIALAPMEAAKVRIQTQPGYANTLREAVPKMYKEEGLNAFYKGVAPLWMRQIPYTMMKFACFERTVEALYKFVVPKPRSECTKAEQLVVTFVAGYIAGVFCAIVSHPADSVVSVLNKEKGSTASQVLQRLGFRGVWKGLFARIIMIGTLTALQWFIYDSVKVYFRLPRPPPPEMPESLKKKLGLTE
With B6, the binding entry in experiment [1] and in experiment [2] was “binds” each time.
